From patent US12023345B2, “Compositions and methods for treating lysosomal disorders” (RUSH UNIVERSITY MEDICAL CENTER, priority 2014, dated 2024)
At least one compound was matched to its structure with a doubt left.

System: Tfeb
Test: TFEB mRNA by semi-quantitative RT-PCR in mouse primary astrocytes
Assay type: cell-based
Conditions: different concentrations, 5 hr, serum-free
Method: Semi-Quantitative Reverse Transcriptase-Coupled Polymerase Chain Reaction (RT-PCR): Total RNA was isolated from mouse primary astrocytes and human primary astrocytes using RNA-Easy Qiagen (Valencia, CA) kit following manufactures protocol. Semi-quantitative RTPCR was carried out as described earlier (28) using oligo (dT) 12-18 as primer and moloney murine leukemia virus reverse transcriptase (MMLV-RT, Invitrogen) in a 20 μl reaction mixture. The resulting cDNA was appropriately amplified using Promega Master Mix (Madison, WI) and the following primers (Invitrogen) for murine genes: […]
Amplified products were electrophoresed on 2% agarose (Invitrogen) gels and visualized by ethidium bromide (Invitrogen) staining. Glyceraldehyde-3-phosphate dehydrogenase (Gapdh) mRNA was used as a loading control to ascertain that an equivalent amount of cDNA was synthesized from each sample.
Mouse primary astrocytes were incubated with different concentrations (see FIG. 9) of simvastatin and pravastatin (A), (B), cinnamic acid (C), and sodium phenylbutyrate and sodium benzoate (D) for 5 hr. under serum-free condition followed by monitoring the mRNA expression of TFEB by semi-quantitative RT-PCR. Sodium formate (D) was used as a negative control for sodium phenylbutyrate and sodium benzoate.

SMILES | TFEB mRNA expression (semi-quantitative RT-PCR)
CC[C@H](C)C(=O)O[C@H]1C[C@H](O)C=C2C=C[C@H](C)[C@H](CC[C@@H](O)C[C@@H](O)CC(=O)O)[C@H]21 [pravastatin] | upregulation of TFEB mRNA expression
CCC(C)(C)C(=O)O[C@H]1C[C@@H](C)C=C2C=C[C@H](C)[C@H](CC[C@@H]3C[C@@H](O)CC(=O)O3)[C@H]21 [simvastatin] | upregulation of TFEB mRNA expression
